Measured data: PubChem BioAssay AID743121 (NCATS, 2013)
The whole screen tested about 26,000 reagents; shown is a part drawn at random. 167 of them (0.63%) were called active. 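Calls are per gene from RSA p-values that are not deposited; an individual active-marked siRNA can sensitise only weakly.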 Entries without a mark were called inactive. The numbers tell different reagents against one gene apart. Further read-outs or replicates are left out here. No sequences are given here.

- Aim: 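Knock-downs that sensitise breast cancer cells to camptothecin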 (primary screen)
- Cell system: MDA-MB-231 cells, a human breast cancer line
- Reagents: single siRNA against human genes, 20 nM siRNA (0.8 pmol per well)
- Time to read-out: 120 h (drug added 48 h after transfection, read 72 h later)
- Challenge: camptothecin 20 nM (about EC30) for 72 h; vehicle 0.1% DMSO in parallel plates
- Measured: 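Cell viability by ATP luminescence (CellTiter-Glo) as % of non-targeting siRNA wells, and the log2 ratio of viability without drug over viability with camptothecin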
- Direction: log2 vehicle/camptothecin viability: higher = stronger sensitisation to camptothecin; viability with camptothecin: higher = more viable cells
- Units: viability with camptothecin in % of control
- Rule for the call: 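Active genes have an RSA gene-level p-value below 0.001, computed from the ratios of their separate siRNAs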

The first 5 entries as a preview:
KIF1B (kinesin family member 1B) #1
- log2 vehicle/camptothecin viability: -0.237
- viability with camptothecin: 81.5

KIF1B (kinesin family member 1B) #2
- log2 vehicle/camptothecin viability: -0.212
- viability with camptothecin: 72.7

KIF1B (kinesin family member 1B) #3
- log2 vehicle/camptothecin viability: -0.114
- viability with camptothecin: 90.2

KIF1B (kinesin family member 1B) #4
- log2 vehicle/camptothecin viability: -0.177
- viability with camptothecin: 114

NLRP11 (NLR family pyrin domain containing 11) #1
- log2 vehicle/camptothecin viability: -0.0713
- viability with camptothecin: 104

Results, repeating the preview:
KIF1B (kinesin family member 1B) #1
- log2 vehicle/camptothecin viability: -0.237
- viability with camptothecin: 81.5

KIF1B (kinesin family member 1B) #2
- log2 vehicle/camptothecin viability: -0.212
- viability with camptothecin: 72.7

KIF1B (kinesin family member 1B) #3
- log2 vehicle/camptothecin viability: -0.114
- viability with camptothecin: 90.2

KIF1B (kinesin family member 1B) #4
- log2 vehicle/camptothecin viability: -0.177
- viability with camptothecin: 114

NLRP11 (NLR family pyrin domain containing 11) #1
- log2 vehicle/camptothecin viability: -0.0713
- viability with camptothecin: 104

NLRP11 (NLR family pyrin domain containing 11) #2
- log2 vehicle/camptothecin viability: -0.352
- viability with camptothecin: 119

NLRP11 (NLR family pyrin domain containing 11) #3
- log2 vehicle/camptothecin viability: -0.301
- viability with camptothecin: 75.6

NLRP11 (NLR family pyrin domain containing 11) #4
- log2 vehicle/camptothecin viability: -0.647
- viability with camptothecin: 75.1

GANC (glucosidase alpha, neutral C) #1
- log2 vehicle/camptothecin viability: -0.397
- viability with camptothecin: 68.6

GANC (glucosidase alpha, neutral C) #2
- log2 vehicle/camptothecin viability: -0.197
- viability with camptothecin: 81.8

GANC (glucosidase alpha, neutral C) #3
- log2 vehicle/camptothecin viability: -0.404
- viability with camptothecin: 39.7

GANC (glucosidase alpha, neutral C) #4
- log2 vehicle/camptothecin viability: -0.0294
- viability with camptothecin: 89.9

CSF2RA (colony stimulating factor 2 receptor subunit alpha) #1
- log2 vehicle/camptothecin viability: 0.47
- viability with camptothecin: 34.7

CSF2RA (colony stimulating factor 2 receptor subunit alpha) #2
- log2 vehicle/camptothecin viability: 0.181
- viability with camptothecin: 76.6

CSF2RA (colony stimulating factor 2 receptor subunit alpha) #3
- log2 vehicle/camptothecin viability: -0.0504
- viability with camptothecin: 104

CSF2RA (colony stimulating factor 2 receptor subunit alpha) #4
- log2 vehicle/camptothecin viability: -0.000555
- viability with camptothecin: 95.9

GP9 (glycoprotein IX platelet) #1
- log2 vehicle/camptothecin viability: 1.02
- viability with camptothecin: 17.4

GP9 (glycoprotein IX platelet) #2
- log2 vehicle/camptothecin viability: -0.338
- viability with camptothecin: 66.5

GP9 (glycoprotein IX platelet) #3
- log2 vehicle/camptothecin viability: -0.575
- viability with camptothecin: 84

GP9 (glycoprotein IX platelet) #4
- log2 vehicle/camptothecin viability: 0.639
- viability with camptothecin: 61.6

AOX1 (aldehyde oxidase 1) #1
- log2 vehicle/camptothecin viability: -0.0962
- viability with camptothecin: 95.5

AOX1 (aldehyde oxidase 1) #2
- log2 vehicle/camptothecin viability: -0.197
- viability with camptothecin: 109

AOX1 (aldehyde oxidase 1) #3
- log2 vehicle/camptothecin viability: 0.0816
- viability with camptothecin: 62.1

AOX1 (aldehyde oxidase 1) #4
- log2 vehicle/camptothecin viability: -0.339
- viability with camptothecin: 88.9

USP43 (ubiquitin specific peptidase 43) #1
- log2 vehicle/camptothecin viability: -0.00314
- viability with camptothecin: 83.3

USP43 (ubiquitin specific peptidase 43) #2
- log2 vehicle/camptothecin viability: -0.315
- viability with camptothecin: 89.7

USP43 (ubiquitin specific peptidase 43) #3
- log2 vehicle/camptothecin viability: -0.149
- viability with camptothecin: 41.6

MAST3 (microtubule associated serine/threonine kinase 3) #1
- log2 vehicle/camptothecin viability: -0.21
- viability with camptothecin: 114

MAST3 (microtubule associated serine/threonine kinase 3) #2
- log2 vehicle/camptothecin viability: -0.0216
- viability with camptothecin: 69.2

MAST3 (microtubule associated serine/threonine kinase 3) #3
- log2 vehicle/camptothecin viability: -0.415
- viability with camptothecin: 11.3

MAST3 (microtubule associated serine/threonine kinase 3) #4
- log2 vehicle/camptothecin viability: -0.0376
- viability with camptothecin: 51.9

PTGDR2 (prostaglandin D2 receptor 2) #1
- log2 vehicle/camptothecin viability: 0.0354
- viability with camptothecin: 79.5

PTGDR2 (prostaglandin D2 receptor 2) #2
- log2 vehicle/camptothecin viability: -0.188
- viability with camptothecin: 83.8

PTGDR2 (prostaglandin D2 receptor 2) #3
- log2 vehicle/camptothecin viability: -0.319
- viability with camptothecin: 21.9

PTGDR2 (prostaglandin D2 receptor 2) #4
- log2 vehicle/camptothecin viability: 0.156
- viability with camptothecin: 76.8

IFITM1 (interferon induced transmembrane protein 1) #1
- log2 vehicle/camptothecin viability: -0.149
- viability with camptothecin: 90.3

IFITM1 (interferon induced transmembrane protein 1) #2
- log2 vehicle/camptothecin viability: -0.207
- viability with camptothecin: 87.7

IFITM1 (interferon induced transmembrane protein 1) #3
- log2 vehicle/camptothecin viability: 0.0204
- viability with camptothecin: 72.6

IFITM1 (interferon induced transmembrane protein 1) #4
- log2 vehicle/camptothecin viability: -0.428
- viability with camptothecin: 78.4

CACNA2D1 #1
- log2 vehicle/camptothecin viability: 0.297
- viability with camptothecin: 72

CACNA2D1 #2
- log2 vehicle/camptothecin viability: -0.242
- viability with camptothecin: 55.8

CACNA2D1 #3
- log2 vehicle/camptothecin viability: -0.565
- viability with camptothecin: 93.5

SERPINF2 (serpin family F member 2) #1
- log2 vehicle/camptothecin viability: -0.0494
- viability with camptothecin: 72

SERPINF2 (serpin family F member 2) #2
- log2 vehicle/camptothecin viability: -0.592
- viability with camptothecin: 58.2

SERPINF2 (serpin family F member 2) #3
- log2 vehicle/camptothecin viability: -0.25
- viability with camptothecin: 67.1
